Measurements: publication PMC8041807
Results are given in words; binding and its absence hold for the method and conditions named. Binding seen in cells or lysates may run through a third protein. These calls come from enrichment with a bait or labelling near it, and not all partners need be listed. Tags and fused reporters may be left off the sequences shown.

Sequences of proteins named here, by UniProt entry; tags and fusion partners are left off.
UniProt P51149: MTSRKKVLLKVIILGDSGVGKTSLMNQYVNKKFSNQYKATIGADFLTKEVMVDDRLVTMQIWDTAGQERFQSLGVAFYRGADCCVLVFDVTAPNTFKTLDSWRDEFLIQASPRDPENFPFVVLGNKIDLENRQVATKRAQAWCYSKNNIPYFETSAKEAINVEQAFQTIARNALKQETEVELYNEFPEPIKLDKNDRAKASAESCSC

Target: T1, FLAG-TRIM39 (human) (UniProt Q9HCM9)
T1 sequence: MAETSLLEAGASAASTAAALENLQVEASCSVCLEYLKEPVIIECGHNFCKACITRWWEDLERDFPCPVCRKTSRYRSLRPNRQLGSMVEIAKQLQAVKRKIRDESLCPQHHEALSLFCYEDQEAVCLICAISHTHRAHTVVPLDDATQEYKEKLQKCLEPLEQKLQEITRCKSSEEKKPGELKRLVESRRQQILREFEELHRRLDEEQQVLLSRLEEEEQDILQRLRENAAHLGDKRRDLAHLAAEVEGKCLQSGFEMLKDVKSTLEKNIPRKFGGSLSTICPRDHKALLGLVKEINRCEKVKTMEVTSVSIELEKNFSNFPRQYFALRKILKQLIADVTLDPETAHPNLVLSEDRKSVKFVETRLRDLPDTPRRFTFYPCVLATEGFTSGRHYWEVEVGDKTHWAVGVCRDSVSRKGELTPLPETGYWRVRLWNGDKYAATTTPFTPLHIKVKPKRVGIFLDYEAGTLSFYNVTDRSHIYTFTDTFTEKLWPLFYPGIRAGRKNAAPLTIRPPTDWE
Experiment: affinity purification with mass spectrometry; HEK293T transfected with empty vector or FLAG-TRIM39 for 48 h; total cell lysates immunoprecipitated with anti-FLAG antibody; mass spectrometry

- binding: binds
Substance: Rab7A (from UniProt P51149 1-207)
